# Results: PubChem BioAssay AID1487 (National Center for Advancing Translational Sciences (NCATS), 2009)
# This is one part of the list. Further columns of the screen follow, without active or inactive calls. Most of these compounds were active or inconclusive in the main read-out, so they are no random draw. The note in brackets gives the kind of curve behind each potency; many fits are weak.
# Assay: qHTS Assay for Modulators of Lamin A Splicing
# Conditions: HeLa LMNA splicing GFP/RFP minigene ratio, 48 h
# In short: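 S3 HeLa cells stably expressing lamin A-EGFP splicing minigene plus DsRed2, 600 cells/well, 48 h compound exposure at 37C. Laser-scanning cytometry; analysed as GFP (500-530 nm)/RFP (575-640 nm) total intensity ratio; 0.5% DMSO vehicle.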
# [1] = measured here: GFP splicing reporter channel
# [2] = measured here: RFP viability control channel
smiles,measurement,setting,value
CCOC(=O)c1c(C)[nH]c(C)c1C(=O)CSc1nc2ccccc2c(=O)n1-c1ccc(Cl)cc1,AC50,[1],"14.1 µM [rising, partial curve]"
same,AC50,[2],"35.5 µM [rising, single point]"
OC(c1cccc(OCc2ccccc2)c1)c1nnc(-c2ccccc2)o1 (configuration not stated),AC50,[2],"8.91 µM [rising, partial curve]"
CCN=C(Nc1ccc2c(c1)OCO2)SC1CC(=O)N(c2ccc(OC)cc2)C1=O (configuration not stated),AC50,[2],"1.41 µM [rising, partial curve]"
COc1ccc(-c2ccc(C#N)c(OC(=O)c3c(Cl)cccc3Cl)n2)cc1,AC50,[1],"11.2 µM [rising, partial curve]"
same,AC50,[2],"10 µM [rising, partial curve, poor fit]"
COc1cc2c(cc1OC)-c1cc(Nc3ccc4c(c3)OCCO4)nc(=O)n1CC2,AC50,[2],"11.2 µM [rising, single point]"
COc1cc(CC(=O)Nc2ccccc2N2CCOCC2)cc(OC)c1OC,AC50,[2],"31.6 µM [rising, partial curve, poor fit]"
CCOC(=O)c1c(NC(=O)COc2ncnc3ccccc23)sc(C(C)=O)c1C,AC50,[2],"12.6 µM [rising, single point]"
COC(=O)c1ccc(NC(=S)NCCCN2CCCC2=O)cc1,AC50,[1],"0.398 µM [rising, partial curve]"
COc1ccccc1C(=O)Nc1nnc(S(=O)(=O)N2CCN(c3ccc(F)cc3)CC2)s1,AC50,[2],"0.00562 µM [falling, full curve, poor fit]"
CC(C)(C)n1cnc2cc(NS(=O)(=O)c3ccc(Br)cc3)ccc21,AC50,[1],"35.5 µM [rising, single point]"
same,AC50,[2],"35.5 µM [rising, single point]"
COc1ccccc1CNC(=O)C(Cc1c[nH]c2ccccc12)NC(=O)OCc1ccccc1 (configuration not stated),AC50,[2],"11.2 µM [rising, partial curve]"
CCCOC(=O)c1ccc(Oc2coc3c(CN(CC)CC)c(O)ccc3c2=O)cc1,AC50,[2],"35.5 µM [rising, single point]"
Cc1nn(-c2ccccc2)c(N2CCCC2)c1/C=N/NC(=O)c1cc(-c2cccnc2)nc2ccccc12,AC50,[1],"31.6 µM [rising, single point]"
same,AC50,[2],"35.5 µM [rising, single point]"
CCOC(=O)c1c(C)oc2ccc(OC(=O)COc3c(F)c(F)c(F)c(F)c3F)cc12,AC50,[2],"0.0562 µM [falling, full curve, poor fit]"
O=C(CCCn1nnc(-c2cccnc2)n1)c1ccc(F)cc1,AC50,[2],"11.2 µM [rising, single point]"
O=C(NCc1ccc(Cl)cc1)c1ccc2c(c1)NC(=O)C(CS(=O)(=O)Cc1ccc(F)cc1Cl)N2 (configuration not stated),AC50,[2],"20 µM [falling, partial curve, poor fit]"
O=C(COCC(=O)Nc1cccc(C(F)(F)F)c1)Nc1cccc(C(F)(F)F)c1,AC50,[1],"11.2 µM [rising, partial curve]"
Cc1cnc(NC(=O)CSc2nnc(CNc3ccc(F)cc3)n2CC2CCCO2)s1 (configuration not stated),AC50,[1],"35.5 µM [rising, single point]"
same,AC50,[2],"31.6 µM [rising, single point]"
Cc1ccc(C(=O)CSc2ncnc3ccccc23)o1,AC50,[2],"3.55 µM [rising, partial curve, poor fit]"
COc1ccc(-n2c(CCc3ccccc3)nnc2SCC(=O)c2ccccc2)cc1,AC50,[1],"22.4 µM [rising, single point]"
same,AC50,[2],"28.2 µM [rising, partial curve, poor fit]"
Cc1ccccc1C(=O)N1CCN(c2ncnc3c2cnn3-c2ccccc2)CC1,AC50,[1],"1.12 µM [rising, full curve, poor fit]"
same,AC50,[2],"12.6 µM [rising, partial curve]"
COc1ccc(-c2nc3cnc(Nc4ccccc4)nc3n(Cc3cccs3)c2=O)cc1,AC50,[1],"22.4 µM [falling, partial curve]"
same,AC50,[2],"22.4 µM [falling, partial curve]"
CCc1nnc(NC(=O)CSc2nc(SC)ns2)s1,AC50,[1],"35.5 µM [falling, partial curve, poor fit]"
OCCN1CCN(c2cc(-c3ccccc3)c3ccccc3n2)CC1,AC50,[2],"0.562 µM [rising, full curve, poor fit]"
O=C1CCSc2ccc(Cl)cc2N1Cc1ccc(Cl)cc1,AC50,[1],"5.01 µM [rising, partial curve]"
same,AC50,[2],"15.8 µM [rising, single point]"
CCN(CC)C1=C(Cl)C(=O)C(Cl)C12OCCO2 (configuration not stated),AC50,[1],"1 µM [rising, full curve, poor fit]"
Cc1cc(C(=O)CSc2nc3ccccc3[nH]2)c(C)n1Cc1ccco1,AC50,[1],"4.47 µM [rising, full curve]"
same,AC50,[2],"2.82 µM [rising, full curve]"
COc1ccc(C(C)=O)cc1CSc1nnc(C)s1,AC50,[1],"35.5 µM [rising, single point]"
Cc1nc(N/N=C/c2ccccn2)sc1C,AC50,[1],"7.08 µM [rising, partial curve, poor fit]"
same,AC50,[2],"14.1 µM [rising, partial curve]"
CCCCCCCCCCCC(=O)NC(C(=O)OCC)C(O)c1cccc([N+](=O)[O-])c1 (configuration not stated),AC50,[1],"22.4 µM [falling, single point]"
same,AC50,[2],"22.4 µM [falling, partial curve]"
CCCNS(=O)(=O)c1ccc(CCC(=O)Nc2ccc3c(c2)OCO3)cc1,AC50,[1],"14.1 µM [rising, partial curve]"
same,AC50,[2],"7.94 µM [rising, partial curve]"
O=C(NCCN1CCCCC1)c1c(O)c2ccccc2[nH]c1=O,AC50,[1],"0.398 µM [falling, full curve, poor fit]"
same,AC50,[2],"0.00316 µM [falling, full curve, poor fit]"
Cc1cc(Br)c(OCc2ccc(C(=O)N/N=C3\CC4CC=CC34)cc2)c(Br)c1 (configuration not stated),AC50,[2],"11.2 µM [rising, partial curve, poor fit]"
CC(C)C[C@H](N)c1nnc(S(=O)(=O)Cc2ccc(F)cc2)o1,AC50,[2],"35.5 µM [rising, single point]"
CC(C)Sc1nc2c([nH]c3ccccc32)c(=O)n1C,AC50,[2],"1.26 µM [falling, partial curve]"
CCOc1ccc(S(=O)(=O)N2CCCCC2)c2ccccc12,AC50,[1],"12.6 µM [rising, partial curve, poor fit]"
same,AC50,[2],"35.5 µM [rising, single point]"
Cc1ccc(N(CC(=O)Nc2c(C)n(C)n(-c3ccccc3)c2=O)S(C)(=O)=O)cc1C,AC50,[2],"35.5 µM [rising, single point]"
Cc1cc(O)c(/C=N/Nc2ccc(F)cc2)c(=O)o1,AC50,[2],"7.94 µM [rising, partial curve, poor fit]"
c1ccc2nc(-c3ccc4c(c3)OCO4)ccc2c1,AC50,[2],"1.12 µM [falling, full curve, poor fit]"
Cc1cc(NC(=O)Cc2ccccc2)nc2c1c(=O)oc1ccccc12,AC50,[1],"31.6 µM [rising, single point]"
same,AC50,[2],"31.6 µM [rising, single point]"
COc1ccc(C(CC(=O)c2ccc(O)cc2)S(=O)(=O)c2ccc(C)cc2)cc1 (configuration not stated),AC50,[1],"15.8 µM [falling, partial curve]"
same,AC50,[2],"35.5 µM [falling, single point]"
Brc1ccc2ncnc(Nc3ccc(N4CCOCC4)cc3)c2c1,AC50,[1],"10 µM [rising, partial curve, poor fit]"
O=C(CC1C(=O)NCCN1Cc1cccc(Oc2ccccc2)c1)NCCc1cscn1 (configuration not stated),AC50,[2],"0.0316 µM [falling, full curve, poor fit]"
CC(NCc1cccc(S(=O)(=O)N(C)C)c1)c1ccc(F)cc1 (configuration not stated),AC50,[1],"35.5 µM [rising, partial curve, poor fit]"
Cc1cc(C(=O)NNC(=S)NC(C)c2ccccc2)cs1 (configuration not stated),AC50,[1],"35.5 µM [rising, single point]"
same,AC50,[2],"35.5 µM [rising, single point]"
O=C(NCc1ccc(F)cc1)c1cc2cccc3c2n1CCS3,AC50,[2],"0.00891 µM [falling, full curve, poor fit]"
COc1ccc(C2C(C(=O)Nc3cccc(C)n3)CCC(=O)N2c2ccc(OC)cc2)cc1 (configuration not stated),AC50,[1],"1.41 µM [falling, full curve]"
same,AC50,[2],"10 µM [falling, partial curve]"
Cc1nc(-c2ccccc2)nc2[nH]c(=O)n(-c3ccccc3)c(=O)c12,AC50,[2],"12.6 µM [rising, single point]"
CC(C)NC(=S)NN=C1CCCCCCCCCCC1,AC50,[1],"35.5 µM [rising, single point]"
same,AC50,[2],"15.8 µM [rising, single point]"
COc1ccccc1N1CCN(Cc2nc(N)nc(Nc3ccc(C)cc3)n2)CC1,AC50,[2],"25.1 µM [rising, single point]"
CC(=O)Nc1ccc(/C=C(\C#N)C(=O)NC2CCCCC2)cc1,AC50,[1],"0.891 µM [falling, full curve, poor fit]"
same,AC50,[2],"0.708 µM [falling, full curve, poor fit]"
COc1ccc(-c2cc(=Nc3ccc(C)cc3)c3ccccc3o2)cc1,AC50,[1],"0.447 µM [falling, full curve, poor fit]"
same,AC50,[2],"0.126 µM [falling, full curve, poor fit]"
COc1ccccc1Cc1nc2ccccc2nc1SCC(=O)Nc1ccc2c(c1)OCO2,AC50,[1],"0.794 µM [rising, full curve, poor fit]"
Cc1ccc(S(=O)(=O)N2CCCC2C(=O)Nc2nc3ccccc3s2)cc1 (configuration not stated),AC50,[1],"15.8 µM [rising, single point]"
same,AC50,[2],"35.5 µM [rising, single point]"

# 5 entries from above, with tabs.
smiles	measurement	setting	value
Cc1cc(C(=O)NNC(=S)NC(C)c2ccccc2)cs1 (configuration not stated)	AC50	[1]	35.5 µM [rising, single point]
same	AC50	[2]	35.5 µM [rising, single point]
O=C(NCc1ccc(F)cc1)c1cc2cccc3c2n1CCS3	AC50	[2]	0.00891 µM [falling, full curve, poor fit]
COc1ccc(C2C(C(=O)Nc3cccc(C)n3)CCC(=O)N2c2ccc(OC)cc2)cc1 (configuration not stated)	AC50	[1]	1.41 µM [falling, full curve]
same	AC50	[2]	10 µM [falling, partial curve]

# Part of the list above in another layout.
smiles	measurement	setting	value
CCOC(=O)c1c(C)[nH]c(C)c1C(=O)CSc1nc2ccccc2c(=O)n1-c1ccc(Cl)cc1	AC50	[2]	35.5 µM [rising, single point]
Cc1cc(C(=O)NNC(=S)NC(C)c2ccccc2)cs1 (configuration not stated)	AC50	[2]	35.5 µM [rising, single point]
